Experimental data: PubChem BioAssay AID1159584 (Peter MacCallum Cancer Centre, 2016)
Shown is an unselected part of about 18,000 reagents tested. Not all columns of the deposit are shown. No sequences are given here. Not given: the amount of reagent, the time to read-out.

Assay: 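Knock-downs that harm CDH1-null cells more than parental MCF10A cells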 (primary screen)
Cell system: human MCF10A breast epithelial cells, parental and CDH1-null
Knock-down reagent: siRNA against human genes
Measured: 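Cell viability by CellTiter-Glo ATP luminescence, each line scaled to the mean of mock wells across plates, then CDH1-null over parental ratio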
Scale: CDH1-null / parental viability ratio: higher = CDH1-null cells survive relatively better than parental; CDH1-null viability vs mock: higher = more viable CDH1-null cells

| gene | PubChem SID | CDH1-null / parental viability ratio | CDH1-null viability vs mock (fraction of mock) |
| --- | --- | --- | --- |
| TBXA2R (thromboxane A2 receptor) | SID152149289 | 0.7 | 0.6 |
| MAN2B2 (mannosidase alpha class 2B member 2) | SID152147232 | 1.04 | 1.02 |
| WDR82 (WD repeat domain 82) | SID152147586 | 1 | 0.76 |
| SPAST (spastin) | SID135622665 | 0.81 | 0.72 |
| CANX (calnexin) | SID152154523 | 1.03 | 0.8 |
| BBS7 (Bardet-Biedl syndrome 7) | SID134317575 | 1.14 | 0.5 |
| CT47A10 (cancer/testis antigen family 47 member A10) | SID135625655 | 1.23 | 0.76 |
| PCDHB8 (protocadherin beta 8) | SID134317511 | 0.76 | 0.82 |
| OR2W5 | SID135625137 | 0.98 | 0.82 |
| MAG (myelin associated glycoprotein) | SID134316043 | 0.84 | 0.42 |
| CCL24 (C-C motif chemokine ligand 24) | SID134312775 | 1.47 | 0.59 |
| TRMT1 (tRNA methyltransferase 1) | SID135621815 | 1.16 | 1 |
| CALCR (calcitonin receptor) | SID134309978 | 1.29 | 0.93 |
| ABRAXAS1 (abraxas 1, BRCA1 A complex subunit) | SID152149017 | 1.1 | 0.85 |
| SLC46A2 | SID134322488 | 1.03 | 0.71 |
| BLK (BLK proto-oncogene, Src family tyrosine kinase) | SID56478485 | 1.06 | 0.86 |
| LMO7 (LIM domain 7) | SID152148773 | 0.91 | 0.84 |
| CORO6 (coronin 6) | SID135622864 | 0.9 | 0.92 |
| CPA2 (carboxypeptidase A2) | SID134311243 | 0.92 | 0.72 |
| DGCR2 (DiGeorge syndrome critical region gene 2) | SID152151905 | 0.76 | 0.57 |
| ZNF543 (zinc finger protein 543) | SID135624411 | 0.91 | 0.82 |
| PPP1R18 (protein phosphatase 1 regulatory subunit 18) | SID135624495 | 1.01 | 0.78 |
| ACE (angiotensin I converting enzyme) | SID134311183 | 0.79 | 0.64 |
| SKAP2 (src kinase associated phosphoprotein 2) | SID152155876 | 0.86 | 0.64 |
| MAPK8IP1 (mitogen-activated protein kinase 8 interacting protein 1) | SID56478708 | 0.94 | 0.66 |
| TMF1 (TATA element modulatory factor 1) | SID135620928 | 0.94 | 0.58 |
| ORC4 (origin recognition complex subunit 4) | SID56478628 | 1.02 | 0.84 |
| CCDC51 (coiled-coil domain containing 51) | SID152152688 | 0.71 | 0.64 |
| ZNF470 (zinc finger protein 470) | SID135625277 | 0.91 | 0.71 |
| UTP25 (UTP25 small subunit processome component) | SID152155685 | 0.87 | 0.52 |
| SPHAR (retired record) | SID152146944 | 1.19 | 1 |
| DSCAM (DS cell adhesion molecule) | SID134320006 | 1.36 | 0.6 |
| SQSTM1 (sequestosome 1) | SID56479234 | 1.06 | 0.91 |
| FBXL18 (F-box and leucine rich repeat protein 18) | SID152152912 | 1.04 | 1.08 |
| ARL6IP6 (ARF like GTPase 6 interacting protein 6) | SID152156057 | 1.14 | 0.8 |
| FGF12 (fibroblast growth factor 12) | SID152150268 | 0.99 | 0.78 |
| GPR75 (G protein-coupled receptor 75) | SID134311036 | 1.37 | 1 |
| SLC33A2 | SID134319631 | 0.89 | 0.68 |
| MAP7D1 (MAP7 domain containing 1) | SID152154823 | 0.89 | 0.5 |
| CNBD1 (cyclic nucleotide binding domain containing 1) | SID135623536 | 0.95 | 0.63 |
| ANP32CP (acidic nuclear phosphoprotein 32 family member C, pseudogene) | SID134315350 | 0.89 | 0.8 |
| LYRM4 (LYR motif containing 4) | SID135622986 | 0.77 | 0.82 |
| LGALS2 (galectin 2) | SID152150420 | 0.81 | 0.57 |
| OR2F2 (olfactory receptor family 2 subfamily F member 2) | SID152155929 | 0.89 | 0.78 |
| TMEM117 (transmembrane protein 117) | SID134318909 | 1.07 | 0.58 |
| FKBP10 (FKBP prolyl isomerase 10) | SID134313237 | 1.21 | 0.41 |
| GPR183 (G protein-coupled receptor 183) | SID152147676 | 0.83 | 0.9 |
| BAMBI (BMP and activin membrane bound inhibitor) | SID152147364 | 0.87 | 0.45 |
| OR4D5 (olfactory receptor family 4 subfamily D member 5) | SID152156750 | 0.96 | 0.8 |
| ZNF414 (zinc finger protein 414) | SID134318968 | 0.97 | 0.7 |
| OR8D1 (olfactory receptor family 8 subfamily D member 1) | SID152153133 | 0.99 | 1.1 |
| FARS2 (phenylalanyl-tRNA synthetase 2, mitochondrial) | SID135622289 | 0.85 | 0.88 |
| TCF25 (TCF25 ribosome quality control complex subunit) | SID134318343 | 1.08 | 0.8 |
| RAB19 (RAB19, member RAS oncogene family) | SID152150455 | 0.74 | 0.5 |
| VIPR2 (vasoactive intestinal peptide receptor 2) | SID134311180 | 0.8 | 0.77 |
| IL20 (interleukin 20) | SID152151966 | 0.93 | 0.76 |
| ESYT1 (extended synaptotagmin 1) | SID134315145 | 1.03 | 0.8 |
| FBXL2 (F-box and leucine rich repeat protein 2) | SID135622557 | 1.08 | 0.99 |
| ASB12 (ankyrin repeat and SOCS box containing 12) | SID134317414 | 1.06 | 0.88 |
| LILRA5 (leukocyte immunoglobulin like receptor A5) | SID134317337 | 0.98 | 0.59 |
| DISC1 (DISC1 scaffold protein) | SID135623964 | 1.26 | 0.58 |
| CPD (carboxypeptidase D) | SID134310735 | 1.23 | 0.86 |
| CDH4 (cadherin 4) | SID134309983 | 1.2 | 1.08 |
| RNF111 (ring finger protein 111) | SID135621293 | 0.87 | 0.66 |
| ZNF223 (zinc finger protein 223) | SID152150050 | 0.91 | 0.73 |
| RAB40AL (RAB40A like) | SID135625716 | 0.99 | 0.88 |
| PON1 (paraoxonase 1) | SID135621725 | 1.17 | 0.84 |
| BRD9 (bromodomain containing 9) | SID152147069 | 1.01 | 0.93 |

Already shown: an excerpt of the list.
| gene | PubChem SID | CDH1-null / parental viability ratio | CDH1-null viability vs mock (fraction of mock) |
| --- | --- | --- | --- |
| ORC4 (origin recognition complex subunit 4) | SID56478628 | 1.02 | 0.84 |
| CCDC51 (coiled-coil domain containing 51) | SID152152688 | 0.71 | 0.64 |
| ZNF470 (zinc finger protein 470) | SID135625277 | 0.91 | 0.71 |
